{"source": "the supplement of paper PMC6445147", "parents": {"B1": {"name": "human tRNA-Pro; a variant is named by its letters at N, in order (parent)", "chain": "GGCTCGTTGGTCTAGNGGTATGATTCTCGCTTAGGGTGCGAGAGGTCCCGGGTTCNNATCCCGGACGAGCCC"}}, "note": "This is a noisy data set."}
{"variants_of": "B1", "assay": "tRNA 3' processing efficiency (processed reads / all reads, maximum-likelihood estimate) (fraction); higher = more efficient 3' processing", "settings": "HEK293T; construct: no Pol-II promoter ((-)CMV library)"}
{"variant": "GGCTCGTTAGTCTGGGTGTATGATTCTCGCTTAGGGTGCGAGAGGTCCCGGGTTCTTACCCCGGACGAGCCC", "note": "[GTT G9A A14G G17T T59C]", "tRNA 3' processing efficiency": 0.17}
{"variant": "GGCTCGTTGGTCTTGAGGTATGATTCTCGCTTAGGGTGCGAGAGGTCCCGGGTTCTTATCCCGGACGAGCCC", "note": "[ATT A14T]", "tRNA 3' processing efficiency": 0.17}
{"variant": "GACTCGTTGGTCTAGGGGTATGATTCTCGCTTAGGGTGCGAGAGGTCCCGGGTTCTTATCCCGGACGAGCCC", "note": "[GTT G2A]", "tRNA 3' processing efficiency": 0.62}
{"variant": "GGCTCGTTGGTCTAGGGTCATGATTCTCGCTTAGGGTGCGAGAGGTCCCGGGTTCTTATCCCGGACGAGCCC", "note": "[GTT G18T T19C]", "tRNA 3' processing efficiency": 0.25}
{"variant": "GGCTCGTCGGTCTAGCGGTATGATTCTCGCTTAGGGTGCGAGAGGTCCCGGGTTCTTATCCCGGACGAGCCC", "note": "[CTT T8C]", "tRNA 3' processing efficiency": 0.4}
{"variant": "GGCTCGTTGGTCTATGGATATGATTCTCGCTTAGGGTGCGAGAGGTCCCGGGTTCTTATCCCGGACGAGCCC", "note": "[GTT G15T G18A]", "tRNA 3' processing efficiency": 0.67}
{"variant": "GGCTCGTTGGTCTTGCGGGATGATTCTCGCTTAGGGTGCGAGAGGTCCCGGGTTCTTATCCCGGACGAGCCC", "note": "[CTT A14T T19G]", "tRNA 3' processing efficiency": 0.25}
{"variant": "GGCTCGTTAGTCTAGCGGTATGATTCTCGCTTAGGGTGCGAGAGGTCCCGGGTTCTTATCCCGGACGAGCCC", "note": "[CTT G9A]", "tRNA 3' processing efficiency": 0.5}
{"variant": "GGCTCGTCGGTCTAGGGGTATGATTCTCGCTTAGGGTGCGAGAGGTCCCGGGTTCTTACCCCGGACGAGCCC", "note": "[GTT T8C T59C]", "tRNA 3' processing efficiency": 0.25}
{"variant": "GGCTCGTTGGTCTAGGGGCATGATTCTCGCTTAGGGTGCGAGAGGTCCCGGGTTCTTGACCCGGACGAGCCC", "note": "[GTT T19C A58G T59A]", "tRNA 3' processing efficiency": 0.33}
{"variant": "GGCTCGTTGGTCTAAGGGTATGATTCTCGCTTAGGGTGCGAGAGGTCCCGGGTTCTTAGCCCGGACGAGCCC", "note": "[GTT G15A T59G]", "tRNA 3' processing efficiency": 0.25}
{"variant": "GGCTCGTAGGTCTACGGGTATGATTCTCGCTTAGGGTGCGAGAGGTCCCGGGTTCTTATCCCGGACGAGCCC", "note": "[GTT T8A G15C]", "tRNA 3' processing efficiency": 0.5}
{"variants_of": "B1", "assay": "tRNA 5' processing efficiency (processed reads / all reads, maximum-likelihood estimate) (fraction); higher = more efficient 5' processing", "settings": "HEK293T; construct: CMV Pol-II promoter ((+)CMV library, decapped)"}
{"variant": "GGCTCGTTGGTCTGGGGGTGTGATTCTCGCTTAGGGTGCGAGAGGTCCCGGGTACAACTCCCGGACGAGCCC", "note": "[GAA A14G A20G T54A A58C]", "tRNA 5' processing efficiency": 0.33}
{"variant": "GGCTCGTTGGTCTGACTGTATGATTCTCGCTTAGGGTGCGAGAGGTCCCGGGTATAAGTCCCGGACGAGCCC", "note": "[CAA A14G G15A G17T T54A C55T A58G]", "tRNA 5' processing efficiency": 0.25}
{"variant": "GGCTCGTTGGTCTTGGGGTTTGATTCTCGCTTAGGGTGCGAGAGGTCCCGGGATCAATTCCCGGACGAGCCC", "note": "[GAA A14T A20T T53A A58T]", "tRNA 5' processing efficiency": 0.08}
{"variant": "GGCTCGTTGGTCTGGGGGTATGATTCTCGCTTAGGGTGCGAGAGGTCCCGGGTTAAAAGCCCGGACGAGCCC", "note": "[GAA A14G C55A T59G]", "tRNA 5' processing efficiency": 0.33}
{"variant": "GGCTCGTTGGTCTGAGAGTATGATTCTCGCTTAGGGTGCGAGAGGTCCCGGGTTTAATTCCCGGACGAGCCC", "note": "[GAA A14G G15A G17A C55T A58T]", "tRNA 5' processing efficiency": 0.2}
{"variant": "GGCTCGTTGGTCTGGGGTTGTGATTCTCGCTTAGGGTGCGAGAGGTCCCGGGATCAAAGCCCGGACGAGCCC", "note": "[GAA A14G G18T A20G T53A T59G]", "tRNA 5' processing efficiency": 0.13}
{"variant": "GGCTCGTTGGTCTGGGGGAGTGATTCTCGCTTAGGGTGCGAGAGGTCCCGGGTTAAAATCCCGGACGAGCCC", "note": "[GAA A14G T19A A20G C55A]", "tRNA 5' processing efficiency": 0.5}
{"variant": "GGCTCGTTGGTCTTCGCATATGATTCTCGCTTAGGGTGCGAGAGGTCCCGGGTTCAAATCCCGGACGAGCCC", "note": "[GAA A14T G15C G17C G18A]", "tRNA 5' processing efficiency": 0.25}
{"variant": "GGCTCGTTGGTCTCGAGATTTGATTCTCGCTTAGGGTGCGAGAGGTCCCGGGGTCAAATCCCGGACGAGCCC", "note": "[AAA A14C G18A A20T T53G]", "tRNA 5' processing efficiency": 0.4}
{"variant": "GGCTCGTTGGTCTCCTGGTATGATTCTCGCTTAGGGTGCGAGAGGTCCCGGGTTTAAATCCCGGACGAGCCC", "note": "[TAA A14C G15C C55T]", "tRNA 5' processing efficiency": 0.17}
{"variant": "GGCTCGTTGGTCTCGGGCATTGATTCTCGCTTAGGGTGCGAGAGGTCCCGGGTTCAAATCCCGGACGAGCCC", "note": "[GAA A14C G18C T19A A20T]", "tRNA 5' processing efficiency": 0.2}
{"variant": "GGCTCGTTGGTCTGGGGGTATGATTCTCGCTTAGGGTGCGAGAGGTCCCGGGTTTAATGCCCGGACGAGCCC", "note": "[GAA A14G C55T A58T T59G]", "tRNA 5' processing efficiency": 0.38}
{"variant": "GGCTCGTTGGTCTGGGGATATGATTCTCGCTTAGGGTGCGAGAGGTCCCGGGATCAAAGCCCGGACGAGCCC", "note": "[GAA A14G G18A T53A T59G]", "tRNA 5' processing efficiency": 0.4}
{"variant": "GGCTCGTTGGTCTGGAGATATGATTCTCGCTTAGGGTGCGAGAGGTCCCGGGTACAAATCCCGGACGAGCCC", "note": "[AAA A14G G18A T54A]", "tRNA 5' processing efficiency": 0.09}
{"variant": "GGCTCGTTGGTCTGGGTGTATGATTCTCGCTTAGGGTGCGAGAGGTCCCGGGATCAAATCCCGGACGAGCCC", "note": "[GAA A14G G17T T53A]", "tRNA 5' processing efficiency": 0.14}
{"variant": "GGCTCGTTGGTCTTACGTTATGATTCTCGCTTAGGGTGCGAGAGGTCCCGGGGTCAAGTCCCGGACGAGCCC", "note": "[CAA A14T G15A G18T T53G A58G]", "tRNA 5' processing efficiency": 0.33}
{"variant": "GGCTCGTTGGTCTCGCGGGCTGATTCTCGCTTAGGGTGCGAGAGGTCCCGGGTCCAAATCCCGGACGAGCCC", "note": "[CAA A14C T19G A20C T54C]", "tRNA 5' processing efficiency": 0.25}
{"variant": "GGCTCGTTGGTCTGGGGATATGATTCTCGCTTAGGGTGCGAGAGGTCCCGGGTCCAAATCCCGGACGAGCCC", "note": "[GAA A14G G18A T54C]", "tRNA 5' processing efficiency": 0.25}
{"variant": "GGCTCGTTGGTCTCTGGTTTTGATTCTCGCTTAGGGTGCGAGAGGTCCCGGGTCTAAATCCCGGACGAGCCC", "note": "[GAA A14C G15T G18T A20T T54C C55T]", "tRNA 5' processing efficiency": 0.25}
{"variant": "GGCTCGTTGGTCTTGGGGTGTGATTCTCGCTTAGGGTGCGAGAGGTCCCGGGTTTAAAGCCCGGACGAGCCC", "note": "[GAA A14T A20G C55T T59G]", "tRNA 5' processing efficiency": 0.2}
{"variant": "GGCTCGTTGGTCTGGGGGCTTGATTCTCGCTTAGGGTGCGAGAGGTCCCGGGTTCAAATCCCGGACGAGCCC", "note": "[GAA A14G T19C A20T]", "tRNA 5' processing efficiency": 0.2}
{"variant": "GGCTCGTTGGTCTGGGGGGATGATTCTCGCTTAGGGTGCGAGAGGTCCCGGGTTGAAATCCCGGACGAGCCC", "note": "[GAA A14G T19G C55G]", "tRNA 5' processing efficiency": 0.25}
{"variant": "GGCTCGTTGGTCTCGACCAATGATTCTCGCTTAGGGTGCGAGAGGTCCCGGGTCCAATTCCCGGACGAGCCC", "note": "[AAA A14C G17C G18C T19A T54C A58T]", "tRNA 5' processing efficiency": 0.2}
{"variant": "GGCTCGTTGGTCTTCAGGAATGATTCTCGCTTAGGGTGCGAGAGGTCCCGGGTTTAAATCCCGGACGAGCCC", "note": "[AAA A14T G15C T19A C55T]", "tRNA 5' processing efficiency": 0.4}
{"variant": "GGCTCGTTGGTCTCGGGGTATGATTCTCGCTTAGGGTGCGAGAGGTCCCGGGTGCAAAGCCCGGACGAGCCC", "note": "[GAA A14C T54G T59G]", "tRNA 5' processing efficiency": 0.5}
{"variant": "GGCTCGTTGGTCTCGGGAGATGATTCTCGCTTAGGGTGCGAGAGGTCCCGGGAGCAAAACCCGGACGAGCCC", "note": "[GAA A14C G18A T19G T53A T54G T59A]", "tRNA 5' processing efficiency": 0.33}
